Measurements as given in the supplement of paper PMC3334620.
In all, about 33,000 sequences were measured (“E-score (-0.5 to 0.5)”: median about -0.0034, highest 2% from about 0.25 on). The list shows a part of the results.

Biological target: T1, Yap3 (UniProt P38749)
T1 sequence: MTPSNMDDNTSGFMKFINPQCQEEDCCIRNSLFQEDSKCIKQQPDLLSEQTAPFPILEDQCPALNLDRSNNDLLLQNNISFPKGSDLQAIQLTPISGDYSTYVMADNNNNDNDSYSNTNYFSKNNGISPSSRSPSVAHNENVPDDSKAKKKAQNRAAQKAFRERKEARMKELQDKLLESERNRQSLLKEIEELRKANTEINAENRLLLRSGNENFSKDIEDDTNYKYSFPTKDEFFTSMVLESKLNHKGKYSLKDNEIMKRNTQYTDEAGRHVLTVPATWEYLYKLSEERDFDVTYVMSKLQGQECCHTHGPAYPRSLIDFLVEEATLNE
Assay: PBM E-score (8-mer binding enrichment) (E-score (-0.5 to 0.5)); higher = stronger / more preferred TF binding
Details: protein concentration: 100 nM; construct: GST-full length
Experimental: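 Universal 'all 10-mer' protein binding microarrays (Agilent AMADID 015681) probed with GST-tagged S. cerevisiae TFs (full-length or DBD) made by in vitro transcription/translation (PURExpress), about 100-200 nM. Bound TF was detected with fluorescent anti-GST. Each ungapped 8-mer (which stands for itself and its reverse complement) is scored by the PBM enrichment score (E-score), a modified Wilcoxon-Mann-Whitney statistic from -0.5 to +0.5, computed with the Universal PBM Analysis Suite. Scale: above 0.35 generally sequence-specific binding.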

Sequence | PBM E-score
ACATTCCA | -0.0217
TCTATGAA | 0.0947
CCAAAACA | -0.0255
CCACAGAG | -0.167
ATCCCAGA | -0.188
ACCTGCCA | -0.108
GGCTGCAA | -0.193
GCTGATCC | 0.0129
ACCTGAAC | -0.119
AGTCCATG | -0.197
CGGTACAA | 0.104
AAAATATC | 0.257
AGAATAAC | 0.0505
CGTTCTAA | 0.0111
AAGATGGG | -0.0453
CAACCACC | -0.0839
GGCTCCCA | -0.308
ATTGCCGC | 0.0374
ATGGAGGG | -0.287
GCCGTCGA | 0.0529
TCACCCAA | 0.15
AAACAACG | 0.158
AGGCCTTG | -0.279
GTGGATAA | 0.024
GAGGTCGA | -0.0132

Sequence | PBM E-score
AGAAGCCT | 0.0664
AGGCTGGC | -0.246
CGGTAGAG | -0.106
CGGCCCGC | -0.195
AGCGAAAC | 0.204
ACACTCTC | 0.195
CGCCAACC | -0.193
GGTAGAAA | 0.0804
GCATCTCC | -0.107
AGATATAT | 0.191
CTTTTTCC | 0.0994
CCGCCACA | -0.126
AACAACCT | 0.0212
AACACGTC | 0.0248
AGGGTATC | -0.059
CAAGTTAG | 0.0507
CTCTAAAA | -0.072
CACGCAGC | -0.243
ATAGATCG | -0.0482
AATACTTG | 0.114
AGTACGTC | 0.0778
AAGATTTA | 0.0921
CGCCTAAA | -0.064
AGGTCAGC | -0.0793
CCCATGCG | -0.134

Some of the entries so far, comma-delimited:
Sequence,PBM E-score
GCTGATCC,0.0129
ACCTGAAC,-0.119
AGTCCATG,-0.197
CGGTACAA,0.104
AAAATATC,0.257
AGAATAAC,0.0505
CGTTCTAA,0.0111
AAGATGGG,-0.0453
CAACCACC,-0.0839
GGCTCCCA,-0.308
ATTGCCGC,0.0374
ATGGAGGG,-0.287
GCCGTCGA,0.0529
TCACCCAA,0.15
AAACAACG,0.158
AGGCCTTG,-0.279
GTGGATAA,0.024
GAGGTCGA,-0.0132
AGGCTGGC,-0.246
CGGTAGAG,-0.106
CGGCCCGC,-0.195
AGCGAAAC,0.204
ACACTCTC,0.195
CGCCAACC,-0.193
GGTAGAAA,0.0804
GCATCTCC,-0.107
AGATATAT,0.191
CCGCCACA,-0.126
AACAACCT,0.0212
AGGGTATC,-0.059
CAAGTTAG,0.0507
CTCTAAAA,-0.072
CACGCAGC,-0.243
ATAGATCG,-0.0482
AATACTTG,0.114
AGTACGTC,0.0778
AAGATTTA,0.0921
CGCCTAAA,-0.064
AGGTCAGC,-0.0793
CCCATGCG,-0.134

The results go on.

Sequence | PBM E-score
TATATCAA | 0.237
GCAGCTAC | -0.0551
AATATCGC | 0.14
CGCGATTA | 0.27
CCCAAACA | 0.137
AGTGACCC | -0.0843
ATTGATCA | 0.0737
GATTTCGC | 0.219
GAGTTTCA | -0.0528
CCACGCGC | -0.148
CCGTTGTA | 0.148
GCGTGTAC | -0.16
CATAGTTA | 0.0154
ACTTCGCT | -0.0063
ATAAGCTC | 0.0274
CGAAACCC | 0.0581
ACACGCTG | 0.0177
CCAGCTGC | -0.236
GATTTGAC | 0.0257
AATCTATG | 0.161
AGCGTGGC | -0.157
CTGTCGGC | -0.123
GAGGACAA | 0.0335
CGGAGGTC | -0.158
CAATTTGA | 0.0883

Sequence | PBM E-score
TACAACGA | 0.122
ATAGCCCA | 0.0521
CCCCGCGA | -0.12
CCCTGACA | -0.11
ACTTGCCC | -0.138
AGTAGTAG | -0.00727
CCTTACAA | -0.0411
AATATACT | 0.205
AAGGATTC | -0.129
CAAACTAA | 0.25
GCTCAGCC | -0.255
GGGACCAA | -0.0553
CGATCCCG | -0.207
TATGGTGA | 0.0221
CTCCGCCA | -0.224
GAGGGGCC | -0.323
CGTATTGC | 0.06
ACGTTGGC | -0.0773
GACCATAC | -0.0526
GGCGACCC | -0.304
GGGGTTAC | -0.233
CTTGGACC | -0.314
CGGGAATA | 0.196
AGCAGAAC | -0.0354
CTAGCACC | -0.00721

2 entries from above, set out differently:
Sequence	PBM E-score
CCCTGACA	-0.11
CGTATTGC	0.06

More entries

Sequence | PBM E-score
ACCTTCCC | -0.0325
CGCTGACC | -0.0253
AGTTAAGA | 0.0921
GACTGGTA | 0.00201
AGCACTTG | -0.241
AAACGCAG | 0.0596
AAGTTCAG | -0.053
AAGTTGGT | 0.234
ACAATCCC | 0.0359
GCGCGCAA | 0.164
CTACTATA | 0.14
ACAAGGAA | 0.141
CAAGTGTA | 0.0709
AGCATGCG | -0.0917
CCGGTCTC | -0.215
ACTAGAGA | -0.0996
CTATGTGC | -0.0493
AGTCGTGA | 0.0306
CGGGCGAC | -0.245
GTACCGGA | 0.0353
CCGGGATA | 0.0635
CGCCGTCC | -0.201
GGGGGTTA | -0.34
AGTACTCA | 0.0416
GGTCCTCA | -0.0789

Sequence | PBM E-score
AATCATGT | 0.152
ATATTTGA | 0.149
ATGCCTTA | -0.0718
AGTCACCA | -0.105
AATGGCAG | -0.0161
AGGTGACA | 0.097
ACATAACA | 0.285
CTAAGCTC | -0.136
ACGGCCCT | -0.149
ATGGTGCG | -0.17
CACTTAAG | 0.115
GAGTTTGC | -0.0658
GCACGCCC | -0.168
GCCCATGA | -0.0132
ACTTAAGT | 0.193
ACAGAGCG | -0.216
ATTGTGCG | 0.0137
TCTGGACA | -0.0238
ACTGTCTC | 0.0475
CATGAGTA | 0.0202
AGCTTCGA | -0.149
AGGATTCG | -0.00903
CCCGTCTA | -0.0601
ACACATCA | -0.067
ACAGACCG | -0.0661

Sequence | PBM E-score
GAGGGGAC | -0.162
CATTACCG | 0.0851
CGATTAAC | 0.0957
CCATGGCA | 0.0196
TAGGCGCA | 0.0286
CCGCTAAC | -0.0268
GAAACAGC | -0.00127
GCGGAGTA | -0.0538
ACCCGGGA | -0.16
CACAATCG | 0.00252
CCCTGATC | -0.208
CCCATCAC | -0.0869
CGAGAAGC | 0.0526
CTGTCATA | 0.0934
ACCGGTCG | -0.23
AATGGGCC | -0.201
ATCACAGC | 0.116
CCTGCTAC | 0.0701
ACTCCGCA | -0.161
ACAGAACA | 0.135
CCGGGTGC | -0.249
CAAATGTA | 0.245
